{
  "source": "patent US4459225A",
  "about": "“Peptide amides and process for their manufacture” (Hoechst Aktiengesellschaft, priority 1979, dated 1984)",
  "key": {"mouse": {"system": "mouse", "test": "Analgesia mouse", "assay_type": "in vivo", "conditions": "ED+100%: doubled reaction time"}, "dog": {"system": "dog", "test": "Intestinal motility (dog)", "assay_type": "in vivo"}},
  "note": "At least one peptide structure holds a part that was inferred or is arguable (an end, a ring closure or a residue). Square brackets hold non-standard residues; d marks the D form. Peptide text beside a SMILES is read from it. * marks the point of attachment. For = O=C*",
  "data": [
    {"smiles": "NC(=O)[C@H](Cc1ccccc1)NC(=O)CNC(=O)[C@@H](CCCCNC=O)NC(=O)[C@@H](N)Cc1ccc(O)cc1", "note": "[A, TyrD-Lys(For)GlyPheNH2] (H-Y[dK](For)GF-NH2)", "values": [
      {"measurement": "Analgesia mouse ED + 100%", "setting": "mouse", "result": 2, "unit": "mg/kg"},
      {"measurement": "Intestinal motility (dog) with 0.01 mg/kg", "setting": "dog", "result": "effective"}
    ]}
  ]
}
